This is one part of the list.
Key:
Assay in all cases: log2 fold change, soluble protein after heating vs DMSO (PISA); higher = thermal stabilisation; K562 cells, 10 uM, 30 min; active = over 0.2 and 3.5 SD of the protein, either way, in both replicates (recomputed)
[1] = compound: C1=CC=C(C=C1)[C@H](COC2=CC3=C(C=C2)NC(=O)N3)NC(=O)C4=CC=CN(C4=O)CC5=CC(=C(C=C5)F)F
Summary of the method: (§1)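 Aliquots of K562 cells (2×10^6 cells/mL) treated with 10 μM compound for 30 min were heated for 3 min over 48°C-58°C. After pooling and extraction in PBS with 0.5% NP-40 at 4°C, soluble protein from a 21,000xg, 90 min spin was quantified by TMTpro 16plex LC-MS/MS with channel sums equalised. Thermal stability is expressed against control samples, from duplicates, as a log2 fold change.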

Amino acid sequences for entries named in this document (tags omitted). A change or cut given only in a name is not applied to a line headed by its entry.
UniProt P16118: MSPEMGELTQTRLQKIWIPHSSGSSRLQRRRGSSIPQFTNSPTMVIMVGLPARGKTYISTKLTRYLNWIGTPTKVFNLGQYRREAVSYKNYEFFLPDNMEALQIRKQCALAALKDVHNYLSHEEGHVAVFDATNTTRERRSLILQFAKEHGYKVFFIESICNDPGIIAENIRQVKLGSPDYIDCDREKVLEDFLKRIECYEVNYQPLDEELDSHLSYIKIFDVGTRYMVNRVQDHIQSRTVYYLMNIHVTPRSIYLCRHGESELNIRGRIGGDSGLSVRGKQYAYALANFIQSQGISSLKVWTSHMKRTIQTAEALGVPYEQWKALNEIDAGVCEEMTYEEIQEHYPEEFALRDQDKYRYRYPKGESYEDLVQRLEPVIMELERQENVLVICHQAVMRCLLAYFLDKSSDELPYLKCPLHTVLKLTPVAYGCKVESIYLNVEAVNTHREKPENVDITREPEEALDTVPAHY
UniProt Q8N0Y7: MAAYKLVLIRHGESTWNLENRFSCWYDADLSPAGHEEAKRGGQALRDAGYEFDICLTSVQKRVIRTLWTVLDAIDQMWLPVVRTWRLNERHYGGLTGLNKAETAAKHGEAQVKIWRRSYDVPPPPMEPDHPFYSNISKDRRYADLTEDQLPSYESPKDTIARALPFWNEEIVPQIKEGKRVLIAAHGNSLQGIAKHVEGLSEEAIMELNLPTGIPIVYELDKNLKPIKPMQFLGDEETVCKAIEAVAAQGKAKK
UniProt Q9UBF8: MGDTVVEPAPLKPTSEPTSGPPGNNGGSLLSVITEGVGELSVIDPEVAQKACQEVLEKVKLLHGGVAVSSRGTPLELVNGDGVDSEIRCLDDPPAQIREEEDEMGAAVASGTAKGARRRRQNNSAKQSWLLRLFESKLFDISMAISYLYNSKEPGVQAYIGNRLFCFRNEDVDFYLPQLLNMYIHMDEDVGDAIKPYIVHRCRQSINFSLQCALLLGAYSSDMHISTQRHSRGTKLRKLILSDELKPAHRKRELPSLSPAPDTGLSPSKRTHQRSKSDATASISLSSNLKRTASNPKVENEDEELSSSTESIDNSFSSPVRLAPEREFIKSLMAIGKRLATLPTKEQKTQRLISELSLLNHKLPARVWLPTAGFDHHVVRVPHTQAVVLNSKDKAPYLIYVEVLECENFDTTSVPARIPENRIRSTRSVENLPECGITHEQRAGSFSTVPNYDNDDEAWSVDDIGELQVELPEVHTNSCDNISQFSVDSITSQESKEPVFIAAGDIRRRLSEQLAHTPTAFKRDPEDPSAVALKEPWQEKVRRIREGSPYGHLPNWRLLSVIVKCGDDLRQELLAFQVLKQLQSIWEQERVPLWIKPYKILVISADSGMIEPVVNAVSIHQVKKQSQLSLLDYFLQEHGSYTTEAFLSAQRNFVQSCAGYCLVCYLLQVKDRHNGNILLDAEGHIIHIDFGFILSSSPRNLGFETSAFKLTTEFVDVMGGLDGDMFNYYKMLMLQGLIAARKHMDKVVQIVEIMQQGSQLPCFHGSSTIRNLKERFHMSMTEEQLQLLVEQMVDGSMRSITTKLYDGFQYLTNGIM
UniProt Q96CS7: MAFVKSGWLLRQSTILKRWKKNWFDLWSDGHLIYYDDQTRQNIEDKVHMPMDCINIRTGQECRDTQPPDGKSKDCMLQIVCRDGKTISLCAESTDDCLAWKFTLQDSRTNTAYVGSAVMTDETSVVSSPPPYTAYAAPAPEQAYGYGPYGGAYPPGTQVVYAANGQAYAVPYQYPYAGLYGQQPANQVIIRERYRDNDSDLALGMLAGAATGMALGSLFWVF
UniProt Q96BK5: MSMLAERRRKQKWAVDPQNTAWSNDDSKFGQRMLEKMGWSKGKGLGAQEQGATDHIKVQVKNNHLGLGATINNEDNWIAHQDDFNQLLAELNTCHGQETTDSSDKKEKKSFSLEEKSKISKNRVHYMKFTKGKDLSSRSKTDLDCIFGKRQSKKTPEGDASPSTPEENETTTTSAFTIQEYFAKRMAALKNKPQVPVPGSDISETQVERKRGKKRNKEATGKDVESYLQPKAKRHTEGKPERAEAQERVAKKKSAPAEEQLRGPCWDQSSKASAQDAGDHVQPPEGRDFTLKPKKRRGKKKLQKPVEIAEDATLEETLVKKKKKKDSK
UniProt Q15111: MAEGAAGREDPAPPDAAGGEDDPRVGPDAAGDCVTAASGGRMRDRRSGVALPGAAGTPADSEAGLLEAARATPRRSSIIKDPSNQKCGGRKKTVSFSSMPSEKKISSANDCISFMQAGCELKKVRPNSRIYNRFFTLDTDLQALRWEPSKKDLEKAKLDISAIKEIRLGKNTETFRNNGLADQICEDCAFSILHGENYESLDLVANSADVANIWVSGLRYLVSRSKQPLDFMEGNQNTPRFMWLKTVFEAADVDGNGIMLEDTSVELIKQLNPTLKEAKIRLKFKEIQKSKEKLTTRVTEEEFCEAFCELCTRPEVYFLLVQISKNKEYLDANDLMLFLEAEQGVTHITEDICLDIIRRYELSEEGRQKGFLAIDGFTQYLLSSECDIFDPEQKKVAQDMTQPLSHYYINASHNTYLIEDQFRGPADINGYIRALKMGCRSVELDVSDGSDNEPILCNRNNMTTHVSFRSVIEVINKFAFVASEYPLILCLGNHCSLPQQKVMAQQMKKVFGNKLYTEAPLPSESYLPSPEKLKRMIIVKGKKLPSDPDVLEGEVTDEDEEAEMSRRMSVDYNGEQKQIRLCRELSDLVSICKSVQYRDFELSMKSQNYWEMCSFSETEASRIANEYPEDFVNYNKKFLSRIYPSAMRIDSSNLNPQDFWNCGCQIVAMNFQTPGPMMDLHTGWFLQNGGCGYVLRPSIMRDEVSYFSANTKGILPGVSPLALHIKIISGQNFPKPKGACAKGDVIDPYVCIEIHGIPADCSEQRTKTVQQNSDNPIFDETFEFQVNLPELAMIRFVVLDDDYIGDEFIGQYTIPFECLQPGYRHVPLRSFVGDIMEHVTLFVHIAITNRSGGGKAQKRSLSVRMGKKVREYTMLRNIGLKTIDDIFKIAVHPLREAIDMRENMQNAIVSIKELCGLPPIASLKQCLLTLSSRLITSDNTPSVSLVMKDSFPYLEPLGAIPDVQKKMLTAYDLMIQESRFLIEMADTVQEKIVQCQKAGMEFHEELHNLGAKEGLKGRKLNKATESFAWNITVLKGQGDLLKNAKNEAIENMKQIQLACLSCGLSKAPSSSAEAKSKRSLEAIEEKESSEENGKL
UniProt P08237: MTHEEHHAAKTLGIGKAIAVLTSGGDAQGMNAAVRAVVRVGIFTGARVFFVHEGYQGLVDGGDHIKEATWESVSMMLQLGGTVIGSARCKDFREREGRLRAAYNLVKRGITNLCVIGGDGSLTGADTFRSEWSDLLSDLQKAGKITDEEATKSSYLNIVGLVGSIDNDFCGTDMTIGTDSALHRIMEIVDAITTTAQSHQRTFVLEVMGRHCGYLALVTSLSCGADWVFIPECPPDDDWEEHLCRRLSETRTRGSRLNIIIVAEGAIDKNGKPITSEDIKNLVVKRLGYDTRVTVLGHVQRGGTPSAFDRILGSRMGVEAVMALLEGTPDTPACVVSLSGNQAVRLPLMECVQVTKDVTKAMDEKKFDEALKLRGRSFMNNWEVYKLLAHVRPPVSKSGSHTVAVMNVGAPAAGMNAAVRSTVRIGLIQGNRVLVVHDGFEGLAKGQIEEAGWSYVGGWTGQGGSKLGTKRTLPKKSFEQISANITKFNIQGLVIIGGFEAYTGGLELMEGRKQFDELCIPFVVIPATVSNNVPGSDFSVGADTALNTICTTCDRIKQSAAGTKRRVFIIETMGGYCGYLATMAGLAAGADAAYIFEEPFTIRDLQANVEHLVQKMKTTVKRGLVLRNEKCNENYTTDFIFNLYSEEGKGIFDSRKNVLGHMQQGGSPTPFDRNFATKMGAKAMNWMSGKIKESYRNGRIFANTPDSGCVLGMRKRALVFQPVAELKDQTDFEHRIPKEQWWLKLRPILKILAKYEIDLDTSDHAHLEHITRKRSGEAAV
UniProt Q4KWH8: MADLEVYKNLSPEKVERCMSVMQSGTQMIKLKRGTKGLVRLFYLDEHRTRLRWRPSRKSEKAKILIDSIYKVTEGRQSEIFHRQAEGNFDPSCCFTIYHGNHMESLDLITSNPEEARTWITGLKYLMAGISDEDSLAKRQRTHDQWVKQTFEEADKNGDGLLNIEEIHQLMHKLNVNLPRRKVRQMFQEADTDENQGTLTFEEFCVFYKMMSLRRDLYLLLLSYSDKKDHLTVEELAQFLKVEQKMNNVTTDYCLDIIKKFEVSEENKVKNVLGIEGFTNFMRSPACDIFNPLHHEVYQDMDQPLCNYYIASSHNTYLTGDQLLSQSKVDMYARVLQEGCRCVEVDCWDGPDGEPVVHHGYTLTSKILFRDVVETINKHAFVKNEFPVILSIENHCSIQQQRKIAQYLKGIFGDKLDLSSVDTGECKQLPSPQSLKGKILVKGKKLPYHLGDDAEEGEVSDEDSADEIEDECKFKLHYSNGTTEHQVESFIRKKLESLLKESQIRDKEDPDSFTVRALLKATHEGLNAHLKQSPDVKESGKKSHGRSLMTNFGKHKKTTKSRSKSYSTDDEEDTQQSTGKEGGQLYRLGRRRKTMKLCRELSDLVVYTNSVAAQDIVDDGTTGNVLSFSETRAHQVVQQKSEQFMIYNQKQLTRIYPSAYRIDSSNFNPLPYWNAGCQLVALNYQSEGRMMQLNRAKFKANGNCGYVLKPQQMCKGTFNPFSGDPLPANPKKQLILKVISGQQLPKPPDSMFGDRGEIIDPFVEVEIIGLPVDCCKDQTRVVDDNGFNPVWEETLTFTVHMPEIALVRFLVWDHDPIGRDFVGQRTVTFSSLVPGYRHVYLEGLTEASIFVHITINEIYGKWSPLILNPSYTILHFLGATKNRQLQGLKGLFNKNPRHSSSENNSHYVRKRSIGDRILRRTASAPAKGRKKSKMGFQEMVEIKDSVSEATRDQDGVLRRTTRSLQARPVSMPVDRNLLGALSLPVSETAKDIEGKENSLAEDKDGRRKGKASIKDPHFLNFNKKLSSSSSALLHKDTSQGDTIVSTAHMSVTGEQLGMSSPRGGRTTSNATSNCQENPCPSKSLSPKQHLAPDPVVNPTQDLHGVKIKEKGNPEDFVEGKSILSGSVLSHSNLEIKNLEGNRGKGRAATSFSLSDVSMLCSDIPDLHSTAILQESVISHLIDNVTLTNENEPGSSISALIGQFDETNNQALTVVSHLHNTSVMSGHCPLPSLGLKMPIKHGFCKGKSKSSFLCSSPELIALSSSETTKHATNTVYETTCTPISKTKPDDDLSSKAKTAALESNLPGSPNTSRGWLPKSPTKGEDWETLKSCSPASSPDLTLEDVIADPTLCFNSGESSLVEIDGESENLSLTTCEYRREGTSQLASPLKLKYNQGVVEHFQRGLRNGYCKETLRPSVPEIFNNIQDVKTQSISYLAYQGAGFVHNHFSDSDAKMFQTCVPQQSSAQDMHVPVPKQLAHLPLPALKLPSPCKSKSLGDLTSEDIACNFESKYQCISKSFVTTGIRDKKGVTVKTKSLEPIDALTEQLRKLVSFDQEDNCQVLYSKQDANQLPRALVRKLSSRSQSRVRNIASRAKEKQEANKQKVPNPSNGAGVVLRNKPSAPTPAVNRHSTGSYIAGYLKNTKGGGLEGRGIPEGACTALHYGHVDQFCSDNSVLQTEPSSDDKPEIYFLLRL
UniProt O95336: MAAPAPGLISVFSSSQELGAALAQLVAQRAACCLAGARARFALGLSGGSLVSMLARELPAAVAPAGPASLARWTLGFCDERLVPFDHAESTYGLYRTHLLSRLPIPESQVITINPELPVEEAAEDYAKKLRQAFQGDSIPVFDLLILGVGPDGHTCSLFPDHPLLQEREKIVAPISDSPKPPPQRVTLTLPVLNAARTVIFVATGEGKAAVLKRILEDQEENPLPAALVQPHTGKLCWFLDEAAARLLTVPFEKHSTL
UniProt Q16875: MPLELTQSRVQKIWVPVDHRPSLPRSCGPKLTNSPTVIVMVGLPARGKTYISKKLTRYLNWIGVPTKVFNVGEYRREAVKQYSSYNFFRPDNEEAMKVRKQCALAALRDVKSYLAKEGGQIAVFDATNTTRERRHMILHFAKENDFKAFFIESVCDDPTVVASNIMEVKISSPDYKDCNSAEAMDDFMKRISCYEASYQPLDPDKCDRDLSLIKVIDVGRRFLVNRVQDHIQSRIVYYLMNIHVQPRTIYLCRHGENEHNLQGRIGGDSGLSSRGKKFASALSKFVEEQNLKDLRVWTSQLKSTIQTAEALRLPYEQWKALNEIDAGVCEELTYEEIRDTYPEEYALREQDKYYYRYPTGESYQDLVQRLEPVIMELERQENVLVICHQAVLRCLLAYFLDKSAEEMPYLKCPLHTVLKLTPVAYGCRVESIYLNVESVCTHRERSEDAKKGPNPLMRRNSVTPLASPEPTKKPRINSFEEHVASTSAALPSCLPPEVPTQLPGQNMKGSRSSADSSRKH

[2] = compound: CC1=C(SC2=C1C(=N[C@H](C3=NN=C(N32)C)CC(=O)N)C4=CC=C(C=C4)Cl)C
Summary of the method: as §1

[3] = compound: CC1=C2C(=CC=C1)N=C(N(C2=O)C3=CC=CC=C3C)CN4C=NC5=C(N=CN=C54)N
Summary of the method: as §1

[4] = compound: Cc1sc2c(c1C)C(c1ccc(Cl)cc1)=N[C@@H](CC(=O)OC(C)(C)C)c1nnc(C)n1-2
Summary of the method: as §1

[5] = compound: c1ccc([C@@H]2C[C@H]2NC2CCNCC2)cc1
Summary of the method: as §1

Measured: log2 fold change

PFKFB1 (UniProt P16118)
inactive: [1] 0

PGAM4 (UniProt Q8N0Y7)
inactive: [1] 0.019 | [2] 0.006 | [3] -0.004 | [4] 0.019 | [5] 0.03

PIAS1 isoform 2 (UniProt O75925)
inactive: [1] 0.021

PI4KB (UniProt Q9UBF8)
inactive: [1] -0.009 | [2] 0.06 | [3] 0.066 | [4] -0.007 | [5] -0.023

PLEKHB2 isoform 2 (UniProt Q96CS7)
inactive: [1] 0.222

PINX1 (UniProt Q96BK5)
inactive: [1] 0.155 | [2] -0.547 | [3] -0.365 | [4] 0.382 | [5] 0.177

PLCL1 (UniProt Q15111)
inactive: [1] 0.12 | [2] 0.073 | [3] 0.165 | [4] -0.029 | [5] 0.052

PFKM isoform 3 (UniProt P08237)
inactive: [1] 0.024 | [2] 0.034 | [3] -0.003 | [4] 0.013 | [5] 0.044

PLCH1 (UniProt Q4KWH8)
inactive: [1] -0.066 | [2] 0.1 | [3] 0.143 | [4] 0.017 | [5] -0.001

PGLS (UniProt O95336)
inactive: [1] -0.019 | [2] 0.041 | [3] -0.011 | [4] -0.014 | [5] -0.073

PFKFB3 isoform 4 (UniProt Q16875)
inactive: [1] 0.02 | [2] -0.014 | [3] 0.005 | [4] -0.012 | [5] -0.07

From the supplement of paper PMC10849652
